Results taken from the supplement of paper PMC8728848.
Some of the results follow.

Columns and labels:
Assay in all cases: glycan array binding signal (z-score within array); higher = stronger binding
Conditions in all cases: glycan notation: IUPAC condensed, linker removed
[1] = biological target: Gal(a1-3)Gal(b1-4)GlcNAc(b1-2)Man
Procedure, shortened: (§1)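 Columns mapping to the same glycan were averaged after glycan names were converted to IUPAC-condensed notation. The data come from 3228 arrays in the Consortium for Functional Glycomics database, limited to those with an available protein sequence. Binding is reported as a within-array Z-score averaged across arrays of one protein sequence and across linkers.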

[2] = biological target: Gal(a1-3)Gal(b1-4)GlcNAc(b1-2)Man(a1-3)[Gal(a1-3)Gal(b1-4)GlcNAc(b1-2)Man(a1-6)]Man(b1-4)GlcNAc(b1-4)GlcNAc
Procedure, shortened: as §1

[3] = biological target: Gal(a1-3)Gal(b1-4)GlcNAc(b1-3)GalNAc
Procedure, shortened: as §1

[4] = biological target: Gal(a1-3)Gal(b1-4)GlcNAc(b1-6)GalNAc
Procedure, shortened: as §1

[5] = biological target: Gal(a1-3)Gal(b1-4)[Fuc(a1-3)]GlcNAc
Procedure, shortened: as §1

[6] = biological target: Gal(a1-3)Gal(b1-4)[Fuc(a1-3)]GlcNAc(b1-2)Man(a1-3)[Gal(a1-3)Gal(b1-4)[Fuc(a1-3)]GlcNAc(b1-2)Man(a1-6)]Man(b1-4)GlcNAc(b1-4)GlcNAc
Procedure, shortened: as §1

Gal(a1-3)GalNAc = biological target: Gal(a1-3)GalNAc
Procedure, shortened: as §1

[7] = biological target: Gal(a1-3)[Gal(a1-4)]Gal(b1-4)GlcNAc
Procedure, shortened: as §1

[8] = biological target: Gal(a1-4)Gal(b1-3)GlcNAc(b1-2)Man(a1-3)[Gal(a1-4)Gal(b1-3)GlcNAc(b1-2)Man(a1-6)]Man(b1-4)GlcNAc(b1-4)GlcNAc
Procedure, shortened: as §1

Gal(a1-4)Gal(b1-4)Glc = biological target: Gal(a1-4)Gal(b1-4)Glc
Procedure, shortened: as §1

Gal(a1-4)Gal(b1-4)GlcNAc = biological target: Gal(a1-4)Gal(b1-4)GlcNAc
Procedure, shortened: as §1

[9] = biological target: Gal(a1-4)Gal(b1-4)GlcNAc(b1-2)Man(a1-3)[Gal(a1-4)Gal(b1-4)GlcNAc(b1-2)Man(a1-6)]Man(b1-4)GlcNAc(b1-4)GlcNAc
Procedure, shortened: as §1

[10] = biological target: Gal(a1-4)Gal(b1-4)GlcNAc(b1-3)Gal(b1-4)Glc
Procedure, shortened: as §1

Gal(a1-4)GlcNAc = biological target: Gal(a1-4)GlcNAc
Procedure, shortened: as §1

Gal(a1-6)Glc = biological target: Gal(a1-6)Glc
Procedure, shortened: as §1

Gal(b1-2)Gal = biological target: Gal(b1-2)Gal
Procedure, shortened: as §1

Gal(b1-3)Gal = biological target: Gal(b1-3)Gal
Procedure, shortened: as §1

Gal(b1-3)Gal(b1-4)GlcNAc = biological target: Gal(b1-3)Gal(b1-4)GlcNAc
Procedure, shortened: as §1

Gal(b1-3)GalNAc = biological target: Gal(b1-3)GalNAc
Procedure, shortened: as §1

[11] = biological target: Gal(b1-3)GalNAc(a1-3)[Fuc(a1-2)]Gal(b1-4)Glc
Procedure, shortened: as §1

[12] = biological target: Gal(b1-3)GalNAc(a1-3)[Fuc(a1-2)]Gal(b1-4)GlcNAc
Procedure, shortened: as §1

Gal(b1-3)GalNAc(b1-3)Gal = biological target: Gal(b1-3)GalNAc(b1-3)Gal
Procedure, shortened: as §1

[13] = biological target: Gal(b1-3)GalNAc(b1-3)Gal(a1-4)Gal(b1-4)Glc
Procedure, shortened: as §1

[14] = biological target: Gal(b1-3)GalNAc(b1-4)Gal(b1-4)Glc
Procedure, shortened: as §1

[15] = biological target: Gal(b1-3)GalNAc(b1-4)[Neu5Ac(a2-3)]Gal(b1-4)Glc
Procedure, shortened: as §1

Gal(b1-3)GlcNAc = biological target: Gal(b1-3)GlcNAc
Procedure, shortened: as §1

[16] = biological target: Gal(b1-3)GlcNAc(a1-3)Gal(b1-4)GlcNAc
Procedure, shortened: as §1

[17] = biological target: Gal(b1-3)GlcNAc(a1-6)Gal(b1-4)GlcNAc
Procedure, shortened: as §1

Gal(b1-3)GlcNAc(b1-2)Man = biological target: Gal(b1-3)GlcNAc(b1-2)Man
Procedure, shortened: as §1

[18] = biological target: Gal(b1-3)GlcNAc(b1-2)Man(a1-3)[Gal(b1-3)GlcNAc(b1-2)Man(a1-6)]Man(b1-4)GlcNAc(b1-4)GlcNAc
Procedure, shortened: as §1

[19] = biological target: Gal(b1-3)GlcNAc(b1-2)Man(a1-3)[Gal(b1-3)GlcNAc(b1-2)Man(a1-6)]Man(b1-4)GlcNAc(b1-4)[Fuc(a1-6)]GlcNAc
Procedure, shortened: as §1

[20] = biological target: Gal(b1-3)GlcNAc(b1-2)Man(a1-3)[GlcNAc(b1-4)][Gal(b1-3)GlcNAc(b1-2)Man(a1-6)]Man(b1-4)GlcNAc(b1-4)GlcNAc
Procedure, shortened: as §1

[21] = biological target: Gal(b1-3)GlcNAc(b1-2)[Gal(b1-3)GlcNAc(b1-6)]Man(a1-6)[Gal(b1-3)GlcNAc(b1-2)Man(a1-3)]Man(b1-4)GlcNAc(b1-4)GlcNAc
Procedure, shortened: as §1

[22] = biological target: Gal(b1-3)GlcNAc(b1-3)Gal(b1-3)GlcNAc
Procedure, shortened: as §1

[23] = biological target: Gal(b1-3)GlcNAc(b1-3)Gal(b1-4)Glc
Procedure, shortened: as §1

[24] = biological target: Gal(b1-3)GlcNAc(b1-3)Gal(b1-4)GlcNAc
Procedure, shortened: as §1

[25] = biological target: Gal(b1-3)GlcNAc(b1-3)Gal(b1-4)GlcNAc(b1-2)Man(a1-3)[Gal(b1-3)GlcNAc(b1-3)Gal(b1-4)GlcNAc(b1-2)Man(a1-6)]Man(b1-4)GlcNAc(b1-4)GlcNAc
Procedure, shortened: as §1

[26] = biological target: Gal(b1-3)GlcNAc(b1-3)Gal(b1-4)GlcNAc(b1-2)[Gal(b1-3)GlcNAc(b1-3)Gal(b1-4)GlcNAc(b1-6)]Man(a1-6)[Gal(b1-3)GlcNAc(b1-3)Gal(b1-4)GlcNAc(b1-2)Man(a1-3)]Man(b1-4)GlcNAc(b1-4)[Fuc(a1-6)]GlcNAc
Procedure, shortened: as §1

[27] = biological target: Gal(b1-3)GlcNAc(b1-3)Gal(b1-4)GlcNAc(b1-3)Gal(b1-4)GlcNAc(b1-2)[Gal(b1-3)GlcNAc(b1-3)Gal(b1-4)GlcNAc(b1-3)Gal(b1-4)GlcNAc(b1-6)]Man(a1-6)[Gal(b1-3)GlcNAc(b1-3)Gal(b1-4)GlcNAc(b1-3)Gal(b1-4)GlcNAc(b1-2)Man(a1-3)]Man(b1-4)GlcNAc(b1-4)[Fuc(a1-6)]GlcNAc
Procedure, shortened: as §1

[28] = biological target: Gal(b1-3)GlcNAc(b1-3)Gal(b1-4)GlcNAc(b1-6)[Gal(b1-3)GlcNAc(b1-3)]Gal(b1-4)Glc
Procedure, shortened: as §1

[29] = biological target: Gal(b1-3)GlcNAc(b1-3)Gal(b1-4)[Fuc(a1-3)]GlcNAc
Procedure, shortened: as §1

[30] = biological target: Gal(b1-3)GlcNAc(b1-3)Gal(b1-4)[Fuc(a1-3)]GlcNAc(b1-6)[Gal(b1-3)GlcNAc(b1-3)]Gal(b1-4)Glc
Procedure, shortened: as §1

[31] = biological target: Gal(b1-3)GlcNAc(b1-3)GalNAc
Procedure, shortened: as §1

[32] = biological target: Gal(b1-3)GlcNAc(b1-6)Gal(b1-4)GlcNAc
Procedure, shortened: as §1

[33] = biological target: Gal(b1-3)GlcNAc(b1-6)GalNAc
Procedure, shortened: as §1

B1: Mermaid2 (Stilbonema majum) (protein)
chain: MGSSHHHHHHSSGLVPRGSHMAASGWLRSPQGTVVKLYRRSLSWSKADEFCKDVDGRLVVDRTADMHLFLIKNVLKEKKSRVWVGLRRTAPHSRTWIWSDGTRQNEDDLNTNLWLRDEPNDAAGEEECALFMYSPWEKAWGLNDYLCRGGCRSYQFICEKGIR
[1]
  glycan array binding signal (z-score): -0.581
[2]
  glycan array binding signal (z-score): -0.676
[3]
  glycan array binding signal (z-score): 0.117
[4]
  glycan array binding signal (z-score): -0.566
[5]
  glycan array binding signal (z-score): -0.408
[6]
  glycan array binding signal (z-score): 1.95
Gal(a1-3)GalNAc
  glycan array binding signal (z-score): -0.634
[7]
  glycan array binding signal (z-score): -0.18
[8]
  glycan array binding signal (z-score): -0.225
Gal(a1-4)Gal(b1-4)Glc
  glycan array binding signal (z-score): -0.176
Gal(a1-4)Gal(b1-4)GlcNAc
  glycan array binding signal (z-score): 0.076
[9]
  glycan array binding signal (z-score): 0.443
[10]
  glycan array binding signal (z-score): -0.363
Gal(a1-4)GlcNAc
  glycan array binding signal (z-score): 0.2
Gal(a1-6)Glc
  glycan array binding signal (z-score): -0.797
Gal(b1-2)Gal
  glycan array binding signal (z-score): -0.539
Gal(b1-3)Gal
  glycan array binding signal (z-score): 0.318
Gal(b1-3)Gal(b1-4)GlcNAc
  glycan array binding signal (z-score): 0.038
Gal(b1-3)GalNAc
  glycan array binding signal (z-score): 1.35
[11]
  glycan array binding signal (z-score): 3.31
[12]
  glycan array binding signal (z-score): 2.24
Gal(b1-3)GalNAc(b1-3)Gal
  glycan array binding signal (z-score): -0.208
[13]
  glycan array binding signal (z-score): -0.881
[14]
  glycan array binding signal (z-score): -0.715
[15]
  glycan array binding signal (z-score): -0.572
Gal(b1-3)GlcNAc
  glycan array binding signal (z-score): 0.006
[16]
  glycan array binding signal (z-score): -0.546
[17]
  glycan array binding signal (z-score): 0.332
Gal(b1-3)GlcNAc(b1-2)Man
  glycan array binding signal (z-score): 0.106
[18]
  glycan array binding signal (z-score): -0.704
[19]
  glycan array binding signal (z-score): 0.025
[20]
  glycan array binding signal (z-score): 0.527
[21]
  glycan array binding signal (z-score): 0.323
[22]
  glycan array binding signal (z-score): -0.44
[23]
  glycan array binding signal (z-score): -0.781
[24]
  glycan array binding signal (z-score): -0.423
[25]
  glycan array binding signal (z-score): -0.188
[26]
  glycan array binding signal (z-score): 0.627
[27]
  glycan array binding signal (z-score): 4.69
[28]
  glycan array binding signal (z-score): -0.056
[29]
  glycan array binding signal (z-score): -0.471
[30]
  glycan array binding signal (z-score): -0.521
[31]
  glycan array binding signal (z-score): -0.356
[32]
  glycan array binding signal (z-score): -0.554
[33]
  glycan array binding signal (z-score): -0.967
